{"source": "PubChem BioAssay AID2685", "about": "(National Center for Advancing Translational Sciences (NCATS), 2010)", "note": "The whole screen tested about 320,000 compounds, of which about 2,100 (0.66%) were called active. The inconclusive results got no clear call from the source; some entries with a clear call stand among them for comparison. The call rests on the fitted dose curve; in most records, active means well fitted inhibition curve with a large enough effect in the signal ratio, with a control signal flat (not every such curve was filed as active); inconclusive means small, poorly fitted or top-dose-only effect, or effect the other way, or a change in a side signal; inactive means flat fitted curve, though single readings scatter; the % refers to the signal ratio. Where the call is inconclusive, the potency comes from a doubtful curve fit. On the % scale 0 is the no-effect control and ±100 the full control effect; potency means the concentration at half of the fitted maximal effect."}
{"test": "qHTS Assay for Lipid Storage Modulators in Drosophila S3 Cells", "settings": "BODIPY lipid droplet fluorescence, 18-24 h, cells fed with added oleic acid; lipid storage change, negative = inhibition: at 46.1 µM (top of the series) unless noted", "in_short": "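Drosophila S3 cells got compounds at several concentrations plus oleic acid (400 uM solution). Laser-scanning cytometry with 488 nm excitation read lipid droplets at 500-530 nm and cells at 575-640 nm. Percent activity was relative to 20 uM Triacsin C.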"}
{"compound": "CC(C)(C)c1nc(-c2ccccc2)nc2c1OCCC2", "Potency": "inconclusive: 23.1 µM [cytotoxic, partial curve, poor fit]"}
{"compound": "Cc1cccc(-n2ncc(Cl)c(Cl)c2=O)c1", "Potency": "inconclusive: 8.2 µM [falling, partial curve]"}
{"compound": "CCOc1ccc(S(=O)(=O)n2cnc(C)c2)cc1", "Potency": "inconclusive: 6.51 µM [activator, single point]"}
{"compound": "CC1(C)CC(=O)c2cc(C(=O)N3CCN(CCO)CC3)c(=O)n(-c3ccc(Cl)cc3)c2C1", "lipid storage change, negative = inhibition": "inconclusive: 4.84%"}
{"compound": "COc1cccc(/C=N/N2C(=O)NC3(CCCCC3)C2=O)c1O", "Potency": "inconclusive: 4.11 µM [falling, full curve, poor fit]"}
{"compound": "NC(=O)N/N=C/c1cc(Br)ccc1OCC(=O)NCc1ccccc1", "lipid storage change, negative = inhibition": "inconclusive: 13.2%"}
{"compound": "O=C(Nc1ccccc1Oc1ccccc1)C1=COCCO1", "lipid storage change, negative = inhibition": "inconclusive: 225%"}
{"compound": "CCc1nc2ccc(C(=O)N3CCN(c4cc(C)ccc4C)CC3)cc2nc1CC", "lipid storage change, negative = inhibition": "inconclusive: 77%"}
{"compound": "Cc1nc2ccc(S(=O)(=O)N(C)CC(=O)NCc3ccc4c(c3)OCO4)cc2s1", "Potency": "inconclusive: 25.9 µM [activator, single point]"}
{"compound": "Cc1cc(C)c(C#N)c(SCC(=O)CC(=O)OC(C)C)n1", "lipid storage change, negative = inhibition": "inconclusive: 60%"}
{"compound": "Cc1cccc(C)c1NC(=O)CSc1nnc([C@@H]2CCCN2C(=O)OC(C)(C)C)o1", "lipid storage change, negative = inhibition": "inconclusive: -30.8%"}
{"compound": "CCn1c(O)c(/C=N/n2cnnc2)sc1=S", "lipid storage change, negative = inhibition": "inconclusive: -25.9%"}
{"compound": "CCOC(=O)CSc1nnc(CSc2nc3ccccc3c(=O)[nH]2)n1-c1ccccc1", "lipid storage change, negative = inhibition": "inconclusive: -6.91%"}
{"compound": "O=C(/C=C/c1cccnc1)c1ccc(F)c(F)c1", "Potency": "inconclusive: 29.1 µM [falling, single point]"}
{"compound": "COc1ccc(C2Nc3ccccc3C(=O)N2NS(=O)(=O)c2ccc(C)cc2)c(OC)c1", "note": "(stereo not drawn)", "lipid storage change, negative = inhibition": "inconclusive: 21.6%"}
{"compound": "O=C(CCN1C(=O)/C(=C\\c2cccs2)SC1=S)NC1=NCCS1", "Potency": "inconclusive: 5.8 µM [falling, full curve]"}
{"compound": "O=C(c1ccco1)N1CCN(Cc2cc(=O)c(OCc3c(F)cccc3Cl)co2)CC1", "lipid storage change, negative = inhibition": "inconclusive"}
{"compound": "CCN(CC)C(=O)CSc1nc2c(sc(=S)n2-c2ccccc2)c(=O)n1-c1ccc(OC)c(OC)c1", "Potency": "inconclusive: 5.8 µM [activator, single point]"}
{"compound": "O=C(Cc1coc2ccc3ccccc3c12)Nc1nnc(C2CC2)s1", "lipid storage change, negative = inhibition": "inconclusive: -20.2%"}
{"compound": "O=C(COC(=O)c1cccnc1Nc1cccc(C(F)(F)F)c1)NCCN1C(=O)CSC1=O", "lipid storage change, negative = inhibition": "inconclusive: 13.4%"}
{"compound": "O=C(CSc1n[nH]c(=O)[nH]c1=O)NC1CCCCC1", "lipid storage change, negative = inhibition": "inconclusive: 8.88%"}
{"compound": "CC1CCCCN1C(=O)CSc1nnc(-c2cccnc2)n1C1CCCCC1", "note": "(stereo not drawn)", "lipid storage change, negative = inhibition": "inconclusive: -157%"}
{"compound": "O=C(NNc1nc2ccccc2s1)C1CC1", "Potency": "inconclusive: 29.1 µM [rising, single point]"}
{"compound": "COc1ccc(S(=O)(=O)N(C)CC(=O)NC2CCCC2)cc1OC", "lipid storage change, negative = inhibition": "inconclusive: 14.6%"}
{"compound": "CN(O)/C=N/C(=S)Nc1ccc(Cl)cc1Cl", "Potency": "inconclusive: 2.06 µM [falling, single point]"}
{"compound": "CCCCN(Cc1nc2ccccc2c(=O)[nH]1)C(=O)CN1C(=O)NC2(CCCCC2)C1=O", "lipid storage change, negative = inhibition": "inconclusive: 0.57%"}
{"compound": "COc1cc(Br)c(/C=C/c2ccc3cccc(O)c3n2)cc1OC", "lipid storage change, negative = inhibition": "inconclusive: -19.9%"}
{"compound": "Cc1cccc(NC(=O)c2cccc(NS(=O)(=O)c3ccc(Cl)cc3)c2)c1", "lipid storage change, negative = inhibition": "inconclusive: 122%"}
{"compound": "O=C(CSCc1ccc(Cl)cc1)Nc1ccc(S(=O)(=O)N2CCOCC2)cc1", "Potency": "inconclusive: 2.91 µM [falling, partial curve, poor fit]"}
{"compound": "[O-][n+]1ccccc1SCc1ccccc1", "Potency": "inconclusive: 0.651 µM [falling, single point]"}
{"compound": "O=C(O)CSCC(=O)Nc1cccc(C(F)(F)F)c1", "Potency": "inconclusive: 0.731 µM [cytotoxic, full curve]"}
{"compound": "COc1ccc(OC)c(-c2csc(NC(=O)CSc3ccc([N+](=O)[O-])cc3)n2)c1", "Potency": "inconclusive: 25.9 µM [activator, single point]"}
{"compound": "S=C(Nc1cccc(Cl)c1)NC1CCCCC1", "lipid storage change, negative = inhibition": "inconclusive: -9.6%"}
{"compound": "O=C(NCc1cccnc1)C1CCCCN1S(=O)(=O)c1ccc(F)cc1", "note": "(stereo not drawn)", "Potency": "inconclusive: 32.6 µM [falling, single point]"}
{"compound": "Cc1ccc(OCC(=O)N/N=C/c2cc([N+](=O)[O-])ccc2N2CCCCC2)cc1", "lipid storage change, negative = inhibition": "inconclusive: 11.4%"}
{"compound": "Cc1cc(C)c(C#N)c(Nc2ccc(F)cc2)n1", "outcome": "inactive [at 46.1 µM]"}
{"compound": "N#Cc1cnc(NN)nc1", "lipid storage change, negative = inhibition": "inconclusive: -16.2%"}
{"compound": "O=[N+]([O-])c1cc([N+](=O)[O-])c2c(=Nc3ccccc3)n(-c3ccccc3)n(O)c2c1", "Potency": "inconclusive: 0.206 µM [falling, full curve]"}
{"compound": "CCC(C)NC(=O)CSC1=Nc2ccccc2C2=NC(CC(=O)NCc3ccc(F)cc3)C(=O)N12", "note": "(stereo not drawn)", "lipid storage change, negative = inhibition": "inconclusive: 7.59%"}
{"compound": "Cc1sc2nc(COC(=O)c3c(F)cccc3F)[nH]c(=O)c2c1C", "lipid storage change, negative = inhibition": "inconclusive: 10.5%"}
{"compound": "CS(=O)(=O)Nc1ccc(-c2cc(/C=C3\\SC(N)=NC3=O)c[nH]c2=O)cc1", "Potency": "inconclusive: 20.6 µM [activator, single point]"}
{"compound": "COc1cc(C2=NC(CO)(CO)CO2)cc(OC)c1OC", "Potency": "inconclusive: 29.1 µM [falling, single point]"}
{"compound": "CC1=Nc2cc(C(=O)NCC3CCCO3)ccc2Sc2ccc(C)cc21", "note": "(stereo not drawn)", "Potency": "inconclusive: 29.1 µM [activator, single point]"}
{"compound": "O=C(NC(NC1CCS(=O)(=O)C1)C(Cl)(Cl)Cl)c1cccc(Cl)c1", "note": "(stereo not drawn)", "lipid storage change, negative = inhibition": "inconclusive: 6.64%"}
{"compound": "O=C(O)CN1C(=O)CSc2ccccc21", "lipid storage change, negative = inhibition": "inactive: -0.578%"}
{"compound": "COc1ccccc1N1CCN(C2CCCN(Cc3ccc(Cl)cc3)C2)CC1", "note": "(stereo not drawn)", "lipid storage change, negative = inhibition": "inconclusive: 97.8%"}
{"compound": "CCOC(=O)C1=C(C)NC(C)=C(C(=O)OCC)C1C(=O)OCC(=O)N(CC)C1CCS(=O)(=O)C1", "note": "(stereo not drawn)", "lipid storage change, negative = inhibition": "inconclusive: 82%"}
{"compound": "O=C(Nc1ccc(Cc2ccncc2)cc1)c1ccco1", "Potency": "inconclusive: 29.1 µM [activator, single point]"}
